Among all 330,000 compounds or so, about 7,700 (2.3%) were called active. Inconclusive results, whose numbers are uncertain, are shown with a selection of clear calls. Calls follow the shape of the dose curve; as a rule, active = well fitted inhibition curve with a large enough effect; inconclusive = small, poorly fitted or top-dose-only effect, or effect the other way; inactive = flat fitted curve, though single readings scatter. Potencies beside an inconclusive call are fits to weak or partial responses and may not hold up.
Test: qHTS screen for small molecules that inhibit ELG1-dependent DNA repair in human embryonic kidney (HEK293T) cells expressing luciferase-tagged ELG1; also: nearly all actives have a fitted effect of over 55% in size
Settings: HEK293T ELG1-luciferase reporter, luminescence, 16 h, DNA damage induced by 5-fluorouridine; series mostly up to 46.1 µM
Summary of the method: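 5-Fluorouridine DNA damage + compound/DMSO, 2,000 cells/well, 16 h, 37 °C/5% CO2. ONE-Glo, 30 min RT, luminescence. Readout = decrease in reporter signal.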
Potency is read from the fitted curve at half-maximal effect.

Row | Structure (SMILES) | Potency
1 | COC(=O)c1ccccc1NC(=O)CC(=O)Nc1ccccc1C(=O)OC | inactive
2 | CCOc1ccc(NC(=O)NCc2ccco2)cc1 | inconclusive: 25.9 µM [activator, single point]
3 | Cc1cccc(N2CCN(CC(=O)Nc3nccs3)CC2)c1C | inconclusive: 20.6 µM [inhibitor, single point]
4 | O=C(NC(NC(=S)Nc1ccccc1Cl)C(Cl)(Cl)Cl)c1cccc(Cl)c1 (stereo not given) | inconclusive: 29.1 µM [inhibitor, single point]
5 | O=C(CCn1nc(-c2ccccc2)ccc1=O)NCCCN1CCCCCC1 | inactive
6 | O=C(COC(=O)c1ccc(Cl)nc1)Nc1ncc(Cl)cc1Cl | inconclusive: 18.3 µM [activator, single point]
7 | O=C(c1ccc(F)c(S(=O)(=O)N2CCOCC2)c1)N(c1ccccc1)c1ccccn1 | inactive
8 | O=C(O)c1ccc(Nc2nc(-c3ccc([N+](=O)[O-])cc3)nc3ccccc23)cc1 | inconclusive: 2.31 µM [inhibitor, partial curve, poor fit]
9 | Cc1ccc(S(=O)(=O)Nc2ccccc2CNc2ncc(Br)cc2Br)cc1 | inactive
10 | COc1ccc(C(=O)COC(=O)Cc2n[nH]c(=O)c3ccccc23)c(OC)c1 | inactive
11 | CC1(C)CC(NC(=O)c2ccc(Cl)c(S(=O)(=O)N(Cc3ccccc3)c3ccccc3)c2)CC(C)(C)N1 | inactive
12 | COc1ccc(N2CCN(C(=O)COC(=O)CSc3ccccc3)CC2)cc1 | inactive
13 | NC1=NC(=O)/C(=C/c2ccsc2)S1 | inconclusive: 29.1 µM [activator, single point]
14 | O=C(Nc1nc2ccccc2[nH]1)C1CCC1 | inconclusive: 5.17 µM [activator, full curve]
15 | O=C(/C=C/c1ccncc1)c1ccc2c(c1)OCCO2 | inconclusive: 18.3 µM [inhibitor, single point]
16 | C=CCNc1nc(Nc2ccc([N+](=O)[O-])cc2)nc(OC)n1 | inconclusive: 18.3 µM [activator, partial curve, poor fit]
17 | CN1C(=O)C(O)(CC(=O)/C=C/c2ccco2)c2cc(Br)ccc21 (stereo not given) | inactive
18 | CCOc1ccc(C2C(C#N)=C(C)NC3=C2C(=O)c2ccccc23)cc1 (stereo not given) | inconclusive: 23.1 µM [inhibitor, partial curve, poor fit]
19 | COc1ccc(C(=O)/C=C/c2ccccc2)c(OC)c1 | inconclusive: 1.83 µM [activator, partial curve]
20 | O=C(Nn1cnnc1)c1cc(Br)ccc1Cl | inconclusive: 0.184 µM [activator, single point]
21 | O=C(CCN1C(=O)/C(=C/c2ccccc2Cl)SC1=S)NNC(=O)c1ccccc1O | inconclusive: 8.2 µM [inhibitor, partial curve, poor fit]
22 | CCN(c1ccccc1)S(=O)(=O)c1ccc(Cl)c(NC(=O)CN2C(=O)NC3(CCCC3)C2=O)c1 | inactive
23 | O=C(N/N=C1\CCc2ccccc21)c1ccc(O)cc1 | inconclusive: 6.51 µM [activator, partial curve]

A different layout for 3 compounds above.
Cc1cccc(N2CCN(CC(=O)Nc3nccs3)CC2)c1C
  Potency: inconclusive: 20.6 µM [inhibitor, single point]
CC1(C)CC(NC(=O)c2ccc(Cl)c(S(=O)(=O)N(Cc3ccccc3)c3ccccc3)c2)CC(C)(C)N1
  Potency: inactive
O=C(N/N=C1\CCc2ccccc21)c1ccc(O)cc1
  Potency: inconclusive: 6.51 µM [activator, partial curve]

The results go on.

Row | Structure (SMILES) | Potency
24 | CC(C)(C)c1ccc(CSc2nc(N)cc(=O)[nH]2)cc1 | inconclusive: 2.31 µM [inhibitor, partial curve]
25 | CCOc1ccc(S(=O)(=O)Nc2cc(Cl)ccc2O)cc1 | inactive
26 | CCCCOC(=O)C[N+](C)(C)CCOC1CC2CCC1(C)C2(C)C (stereo not given) | inconclusive: 2.06 µM [inhibitor, full curve, poor fit]
27 | CCN(CC)S(=O)(=O)c1cc(C)c(C)cc1OCC(=O)NC1CCCC1 | inconclusive: 23.1 µM [inhibitor, partial curve]
28 | Cc1cc(C(=O)C(C)OC(=O)c2ccc(NC(=O)CC#N)cc2)c(C)n1-c1ccccc1 (stereo not given) | inconclusive: 25.9 µM [inhibitor, single point]
29 | O=C(Nc1ccc(N2CCN(C(=O)c3ccccc3F)CC2)cc1)c1cncc(Br)c1 | active: 3.66 µM
30 | N#Cc1c2c(c(N3CCN(c4ccccn4)CC3)n3c1nc1ccccc13)CCC2 | inactive
31 | COc1ccc(C)cc1NC(=O)C1CCCN(S(=O)(=O)c2cccc3cccnc23)C1 (stereo not given) | inconclusive: 29.1 µM [inhibitor, single point]
32 | Cc1ccc(C(C(=O)NC2CCCC2)N(C(=O)Cc2cccs2)c2ccc(C)c(C)c2)o1 (stereo not given) | inactive
33 | Cc1cc(=O)oc2c(C)c(OC(C)C(=O)NCCCn3ccnc3)ccc12 (stereo not given) | inconclusive: 18.3 µM [activator, partial curve, poor fit]
34 | O=C(NCCN1C(=O)C2C3C=CC(C3)C2C1=O)Nc1ccc(Br)cc1 (stereo not given) | inconclusive: 7.31 µM [activator, partial curve]
35 | COc1ccc2cc(CN(C(=O)Nc3ccccc3OC)C3CCCC3)c(=O)[nH]c2c1 | inconclusive: 18.4 µM [inhibitor, single point]
36 | CCCCn1c(CCC(=O)O)nc2cc(S(=O)(=O)N(CC)CC)ccc21 | inconclusive: 20.6 µM [inhibitor, single point]
37 | COc1cccc(OC)c1C1=CC(=O)C[C@H](c2ccc3c(c2)OCO3)C1 | active: 9.2 µM
38 | CCCN(CC(=O)Nc1ccccc1C)C(=O)c1ccc(C(=O)c2ccccc2)cc1 | inconclusive: 0.73 µM [inhibitor, partial curve, poor fit]
39 | C(=N\Nc1nncn1/N=C/c1ccco1)/c1ccco1 | inactive
40 | O=C(CC(=O)Nc1ccccn1)Nc1ccccn1 | inactive
41 | Cc1ccc(-c2noc(CN(C(=O)CCCCCN3C(=O)c4ccccc4C3=O)C(C)C)n2)cc1 | active: 18.4 µM
42 | O=C(Nc1cccc2ccccc12)c1ccc([N+](=O)[O-])s1 | active: 16.4 µM
43 | CC(NS(=O)(=O)c1ccc2c(c1)C(=O)c1cc(S(=O)(=O)NC(C)C(=O)O)ccc1-2)C(=O)O (stereo not given) | inconclusive: 25.9 µM [activator, partial curve, poor fit]
44 | COc1ccc(C(C(=O)NCC2CCCO2)N(C(=O)c2snc(C(N)=O)c2N)c2ccccc2)cc1OC (stereo not given) | inactive
45 | NC(=O)c1c(-c2ccccc2)oc2ccc(O)cc12 | inconclusive: 20.6 µM [activator, partial curve, poor fit]
